The record followed here is publication PMC11536954.

Amino acid sequences for entries named in this document (tags omitted). A change or cut given only in a name is not applied to a line headed by its entry.
UniProt Q9H237: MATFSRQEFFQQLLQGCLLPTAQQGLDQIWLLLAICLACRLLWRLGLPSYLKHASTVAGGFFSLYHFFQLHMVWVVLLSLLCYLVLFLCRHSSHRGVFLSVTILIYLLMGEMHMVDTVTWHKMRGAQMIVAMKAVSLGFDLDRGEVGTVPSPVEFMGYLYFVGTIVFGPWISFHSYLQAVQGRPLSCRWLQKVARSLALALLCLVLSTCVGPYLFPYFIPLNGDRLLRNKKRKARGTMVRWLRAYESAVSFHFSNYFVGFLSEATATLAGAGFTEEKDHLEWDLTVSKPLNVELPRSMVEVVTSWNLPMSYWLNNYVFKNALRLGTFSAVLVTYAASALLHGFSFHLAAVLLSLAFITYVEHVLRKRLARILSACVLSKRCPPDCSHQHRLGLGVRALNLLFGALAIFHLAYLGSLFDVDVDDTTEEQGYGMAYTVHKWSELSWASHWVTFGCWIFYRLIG

Results are given in words; binding and its absence hold for the method and conditions named. In cells and extracts the contact can be indirect. A result given as binding can be weak or reduced; the word gives no strength.

This test addresses recombinant PORCN protein (Cusabio) (UniProt Q9H237). The test is described as follows: co-IP; in vitro co-IP in PBS, 200 µl, protein A/G beads with IgG or anti-PORCN antibody; 1 µg GST-Ku70 and 1 µg recombinant PORCN; 4 °C, 2 h; both purified.

Take “GST-tagged Ku70 protein (Abnova) (from UniProt P12956 1-609)”: the binding result is on record as “binds”.
